Measured values: article PMC7364212
Results are given in words; binding and its absence hold for the method and conditions named. Binding seen in cells or lysates may run through a third protein. Some entries that bind do so weakly or less than the wild type.

Amino acid sequences for entries named in this document (tags omitted).
UniProt P36813: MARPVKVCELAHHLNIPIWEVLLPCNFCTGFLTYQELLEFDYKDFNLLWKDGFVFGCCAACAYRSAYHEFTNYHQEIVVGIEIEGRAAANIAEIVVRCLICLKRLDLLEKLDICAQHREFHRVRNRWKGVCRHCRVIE
UniProt P03126: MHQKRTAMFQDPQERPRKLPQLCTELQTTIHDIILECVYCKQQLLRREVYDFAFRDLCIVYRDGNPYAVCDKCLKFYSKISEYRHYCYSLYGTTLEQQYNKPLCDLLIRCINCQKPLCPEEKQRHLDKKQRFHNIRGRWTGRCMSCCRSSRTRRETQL
UniProt Q92585: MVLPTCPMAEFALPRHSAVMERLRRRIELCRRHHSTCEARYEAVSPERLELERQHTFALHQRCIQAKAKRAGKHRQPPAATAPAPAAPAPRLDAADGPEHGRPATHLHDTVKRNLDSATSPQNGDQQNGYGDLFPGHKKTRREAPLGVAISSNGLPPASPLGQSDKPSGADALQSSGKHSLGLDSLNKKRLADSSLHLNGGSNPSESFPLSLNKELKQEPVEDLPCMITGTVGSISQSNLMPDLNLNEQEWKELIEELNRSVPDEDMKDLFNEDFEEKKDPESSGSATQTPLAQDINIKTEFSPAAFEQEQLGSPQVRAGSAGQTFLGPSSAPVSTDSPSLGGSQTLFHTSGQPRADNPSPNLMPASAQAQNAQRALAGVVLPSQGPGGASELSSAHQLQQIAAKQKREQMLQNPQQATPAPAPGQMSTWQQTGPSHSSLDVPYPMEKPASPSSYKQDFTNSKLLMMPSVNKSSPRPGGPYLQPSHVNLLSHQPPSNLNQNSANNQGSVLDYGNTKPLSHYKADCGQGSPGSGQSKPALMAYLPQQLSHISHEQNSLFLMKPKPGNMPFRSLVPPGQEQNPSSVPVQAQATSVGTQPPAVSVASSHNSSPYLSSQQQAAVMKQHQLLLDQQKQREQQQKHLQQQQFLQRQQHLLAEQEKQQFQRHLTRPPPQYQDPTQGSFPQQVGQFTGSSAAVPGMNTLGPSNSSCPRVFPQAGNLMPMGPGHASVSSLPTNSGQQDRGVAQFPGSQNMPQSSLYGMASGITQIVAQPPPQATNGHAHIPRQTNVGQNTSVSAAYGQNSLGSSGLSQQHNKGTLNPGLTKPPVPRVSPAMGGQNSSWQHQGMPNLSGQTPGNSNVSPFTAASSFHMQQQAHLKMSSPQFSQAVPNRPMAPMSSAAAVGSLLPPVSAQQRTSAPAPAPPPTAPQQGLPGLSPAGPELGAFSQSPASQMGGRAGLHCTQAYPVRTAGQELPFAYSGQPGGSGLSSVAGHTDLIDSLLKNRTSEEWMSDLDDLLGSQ

How the values were obtained:
[1] = target: GST/E6 fusion protein of beta-3 HPV49 (human papillomavirus type 49 (HPV49)) (UniProt P36813); experiment: pull-down; only the target purified
[2] = target: GST/E6 fusion protein of mucosal high-risk HPV16 (human papillomavirus type 16 (HPV16)) (UniProt P03126); experiment: pull-down; only the target purified

Substance: Mastermind-like 1 (MAML1) (from UniProt Q92585 1-1016)
- binding [1]: binds
- binding [2]: no binding
